Laboratory results: US20240130994A1, “IONIC LIQUID FORMULATIONS FOR TREATING DIABETES” (i2O Therapeutics, Inc., priority 2020, published 2024)

Experiment: Physical form of choline-based ionic liquids at room temperature
Type: physicochemical
Conditions: cation:anion 1:2, room temperature
Protocol: Several ionic liquids comprising choline as a cation and various anions were synthesized. […] For anions not miscible with the aqueous choline bicarbonate solution, a co-solvent, such as ethanol, was added until a homogenous mixture formed. The mixture was stirred at room temperature until CO2 evolution ceased. Solvent was removed by rotary evaporation at 60° C. for 20 minutes, and each product was dried in a vacuum oven for 48 hours at 60° C.

For `CC(C)CC(=O)O` [Isovaleric Acid], the “Physical Form (Ratios Listed as Cation:Anion)” value was “Liquid at 1:2”.
